“Also recorded” adds a separate entry of the source.
Assays:
N^AM7C = test: [15N,1H]-HSQC peptide titration, N^AM7C; assay type: binding; details: 310 K
N^YM7C = test: [15N,1H]-HSQC peptide titration, N^YM7C/NM7C; assay type: binding

(Lys-Arg)4 [(KR)4] was tested, and the “linewidth of bound-state signals” value (N^AM7C) was “linewidths of the bound-state signals decrease when going from (KR)4 to (KR)5 to (KR)6; also recorded: much broader for the N^AM7C:(KR)4 complex than for the N^YM7C:(KR)4 complex”, the “exchange regime of bound-state signals” value (N^AM7C; 250 μM dArmRP) was “intermediate exchange” and the “binding mode / preferred binding site” value (N^YM7C; HSQC titration and CSPs, (KR)4, N^YM7C (segmentally labeled for site preference)) was “two-step process with an initial tight binding of the first peptide followed by weaker binding of a second peptide; also recorded: slight preference for the C-terminal part of the protein”. For the same substance, the “exchange regime on the NMR timescale” value (N^YM7C; HSQC titration, 310 K, 250 μM dArmRP) was “slow exchange is observed only up to 1 equiv. of (KR)4 for the Trp indole signals, after which signals follow further changes in the fast-exchange regime”.

From paper PMC10684580, “Unexpected dynamics in femtomolar complexes of binding proteins with peptides” (Nature Communications, 2023)
